In paper PMC7582879 one finds binding data, which are given here for one molecule.

Amino acid sequences for entries named in this document (tags omitted).
UniProt P43588: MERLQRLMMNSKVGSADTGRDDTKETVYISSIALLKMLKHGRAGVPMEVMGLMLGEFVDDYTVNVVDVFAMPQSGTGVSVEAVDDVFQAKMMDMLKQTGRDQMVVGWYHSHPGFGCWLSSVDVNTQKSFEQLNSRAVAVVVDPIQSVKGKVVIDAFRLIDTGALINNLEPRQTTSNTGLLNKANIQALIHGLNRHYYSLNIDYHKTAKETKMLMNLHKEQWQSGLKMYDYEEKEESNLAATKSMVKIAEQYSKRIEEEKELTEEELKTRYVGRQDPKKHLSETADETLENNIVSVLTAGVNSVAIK

No constants are given. Whether binding was seen depends on the method and setting. In cells and extracts the contact can be indirect. Some results given as binding are weak or reduced against the parent protein; the word gives no strength. Tags and fused reporters may be left off the sequences shown.

This assay deals with Rpn11 with a protein A affinity purification tag (yeast) (UniProt P43588). Nature of the assay: pull-down; proteasomes purified from lysates of yeast grown in YPD by the protein A tag on Rpn11 with IgG affinity resin; eluate on SDS-PAGE, Coomassie brilliant blue.

B1: β5 (Pre2) subunit of the proteasome core particle with a C-terminal GFP tag (protein, UniProt P30656 76-287)
chain: TTTLAFRFQGGIIVAVDSRATAGNWVASQTVKKVIEINPFLLGTMAGGAADCQFWETWLGSQCRLHELREKERISVAAASKILSNLVYQYKGAGLSMGTMICGYTRKEGPTIYYVDSDGTRLKGDIFCVGSGQTFAYGVLDSNYKWDLSVEDALYLGKRSILAAAHRDAYSGGSVNLYHVTEDGWIYHGNHDVGELFWKVKEEEGSFNNVIG
As for B1, the binding entry was “binds”.
